# Experimental data reported in patent US20210047278A1, “E3 UBIQUITIN LIGASE AGONISTS, PHARMACEUTICAL COMPOSITIONS INCLUDING THE E3 UBIQUITIN LIGASE AGONISTS, RELATED METHODS OF USE” (FRED HUTCHINSON CANCER RESEARCH CENTER, priority 2018, published 2021).
# Experiment: Promiscuity Index of the hits (Table 5)
row,SMILES,Promiscuity Index
1,Cc1cccc(NC(=O)N2CCC(c3nnc(C4CC4)s3)CC2)c1 [SR-01000922889-1],1 out of 17
2,CC(NC(=O)c1cnc2ccccn12)c1ccc(F)cc1 (stereo not shown) [SR-01000378746-1],2 out of 46
3,COc1cccc(/C=N/c2ccc3[nH]ncc3c2)c1O [SR-01000359514-1],3 out of 45
4,COc1cccc(C=O)c1OC(=O)c1cccc(Cl)c1 [SR-01000242625-1],2 out of 45
5,O=C(c1ccco1)N1CCN(c2ncc(-c3ccccc3CO)n3ccnc23)CC1 [SR-01000381408-1],1 out of 46
6,CCCCCCCC(=O)Nc1ccc(C(=O)Nc2ccc(O)c(C(=O)O)c2)cc1 [SR-01000507444-1],2 out of 45
7,CCC(c1nnnn1CCC(C)C)N1CCN(C(=O)c2ccco2)CC1 (stereo not shown) [SR-01000340422-1],1 out of 45
8,CC(C)c1ccc(Nc2nccn3c(-c4ccoc4)cnc23)cc1 [SR-01000376943-1],2 out of 44
9,COc1cccc(/C=N/c2cnn(C)c2C(N)=O)c1O [SR-01000314216-1],1 out of 45
10,CC1=C(C(=O)OCCc2ccccc2)C(c2ccc(Cl)cc2Cl)C2=C(CC(C)(C)CC2=O)N1 (stereo not shown) [SR-01000419178-1],1 out of 45
11,CC(=O)NCC(c1cccs1)S(=O)(=O)c1ccc(C)cc1 (stereo not shown) [SR-01000023077-1],2 out of 45
12,CC1=C(C(=O)OC(C)C)C(c2ccncc2)C2=C(CC(c3ccccc3)CC2=O)N1 (stereo not shown) [SR-01000217822-2],2 out of 45
13,CC1=C(C(=O)OC2CCCCC2)C(c2ccc(F)cc2)C2=C(CC(c3ccccc3)CC2=O)N1 (stereo not shown) [SR-01000420805-1],2 out of 45
14,CCSc1nnc(C2CCN(CC(=O)Nc3cccc4ccccc34)CC2)n1C [SR-01000349710-1],1 out of 45
15,O=C(Nc1ccc2c(c1)OCO2)N1CCC(c2nnc(C3CC3)s2)CC1 [SR-01000922885-1],1 out of 17
16,Cc1ccc2nc(SCC(=O)Nc3ncc(C)s3)c(C#N)cc2c1 [SR-01000340506-1],3 out of 45
17,CCCOc1ccc(C2C(C(=O)OC)=CN(CCOC)C=C2C(=O)OC)cc1 [SR-01000259436-1],1 out of 45
18,CC(C)(C)OC(=O)N/N=C\c1cccs1 [SR-01000110457-1],1 out of 45
19,CCN(Cc1ccccc1)C(=O)c1cc2c(=O)n3cccc(C)c3nc2n1C [SR-01000140943-1],2 out of 45
20,CN(C)CCN(C)c1nc([C@H](N)Cc2cccc(F)c2)cc2ccc(-c3cn[nH]c3)cc12.O=C(O)C(F)(F)F [SR-00000006284-1],2 out of 36
21,COc1ccc(OC)c(/C=C2/N=C(c3cccc([N+](=O)[O-])c3)OC2=O)c1 [SR-01000414795-1],1 out of 45

row,SMILES,Promiscuity Index
1,CCN1C(=O)c2cccc3c(N4CCCC4)ccc(c23)C1=O [SR-01000221568-1],15 out of 45
2,COc1ccccc1-c1ccc(N2CCN(C(=O)COc3ccccc3)CC2)nn1 [SR-01000920770-1],2 out of 17
3,C/C(=N\Nc1cccc(C(F)(F)F)c1)C1CC1 [SR-01000041073-1],3 out of 45
4,Cc1ncn(-c2ccc(Nc3cc(-c4nocc4-c4ccccn4)ccn3)cc2)n1.O=C(O)C(F)(F)F [SR-00000006872-1],1 out of 36
5,NC(c1nc2cc(-c3ccncc3)cnc2[nH]1)c1ccc(F)cc1F.O=C(O)C(F)(F)F (stereo not shown) [SR-00000003416-1],2 out of 41
6,CCS(=O)(=O)NCC(c1cccs1)S(=O)(=O)c1ccc(C)cc1 (stereo not shown) [SR-01000023127-1],2 out of 45
7,CCOC(=O)C1CCN(C(=O)Nc2ccc(NC(=O)C3CCN(C(=O)OCC)CC3)cc2)CC1 [SR-01000451467-1],1 out of 45
8,O=c1c2cnn(-c3ccccc3)c2nnn1Cc1cccnc1 [SR-01000355082-1],1 out of 45
9,CCOC(=O)C1=CN(Cc2ccc(OC)cc2)C=C(C(=O)OCC)C1c1ccccc1OCc1ccccc1 [SR-01000587933-1],1 out of 45
10,COc1ccccc1C1C(C(=O)OC2CCCC2)=C(C)NC2=C1C(=O)CC(c1ccccc1)C2 (stereo not shown) [SR-01000422836-1],1 out of 45
11,CC(=O)Nc1ccc(NC(=O)Cn2cnc3c(cnn3C(C)(C)C)c2=O)cc1 [SR-01000137195-1],1 out of 45
12,CSc1ccccc1C(=O)Nc1nc2nc(C)cc(C)c2s1 [SR-01000917298-1],1 out of 17
13,COc1ccccc1-c1ccc(=O)n(CC(=O)Nc2ccc(C(=O)N3CCCC3)cc2)n1 [SR-01000332536-1],1 out of 45
14,CCN(CC)c1ccc2cc(-c3nc(C)cs3)c(=O)oc2c1 [SR-01000312020-1],13 out of 45
15,Cc1ccc(-c2cccc3cnc(Nc4ccc(-n5cnc(-c6ccccn6)n5)cc4)nc23)cn1.O=C(O)C(F)(F)F [SR-00000008492-1],1 out of 36
16,CCC(C)OC(=O)C1=C(C)NC2=C(C(=O)CC(c3ccc(Cl)cc3)C2)C1c1cccc(Cl)c1 (stereo not shown) [SR-01000422821-1],2 out of 45
17,CN(C)CC[S+]([O-])c1cc(-c2cn[nH]c2)ccc1NC(=O)[C@@H]1Cc2cc(F)ccc2CN1.O=C(O)C(F)(F)F (stereo partly shown) [SR-00000005398-1],3 out of 41
18,O=C(Cc1ccc(Br)cc1)N1CCC(c2nc(O)c3cnccc3n2)C1.O=C(O)C(F)(F)F (stereo not shown) [SR-00000005455-1],2 out of 41
19,O=C(NCCCN1CCc2ccccc2C1)Nc1ccc(Br)cc1 [SR-01000123578-1],3 out of 45
20,COc1ccc(N2C(=O)CC(SCCN)C2=O)cc1 (stereo not shown) [SR-01000428800-1],1 out of 45
21,CC1=C(C(=O)OCc2ccccc2)C(c2cn(-c3ccccc3)nc2-c2ccc(F)cc2)C(C(=O)OCc2ccccc2)=C(C)N1 [SR-01000425637-1],1 out of 45

row,SMILES,Promiscuity Index
1,CCSCCOC(=O)C1=C(C)NC2=C(C(=O)CCC2)C1c1ccc(Br)cc1 (stereo not shown) [SR-01000422432-1],2 out of 45
2,COc1cc(-c2ccnc(N)n2)ccc1NC(=O)[C@H]1COc2ccccc2O1.O=C(O)C(F)(F)F [SR-00000003239-1],2 out of 41
3,COCCOC(=O)C1=C(C)NC2=C(C(=O)CC(c3ccccc3)C2)C1c1ccc(OCc2ccccc2)cc1 (stereo not shown) [SR-01000422392-1],1 out of 45
4,CCN(CC)c1ccc2cc(-c3ccccn3)c(=O)oc2c1 [SR-01000033354-1],13 out of 45
5,Cc1ccc(-c2nnc(N3CCN(C(=O)c4ccco4)CC3)c3ccccc23)cc1 [SR-01000505133-1],2 out of 45
6,Cn1nc(CC(=O)Nc2ccc(F)c(Cl)c2)c2ccccc2c1=O [SR-01000589827-1],1 out of 45
7,Fc1ccccc1CSc1nnnn1-c1ccccc1F [SR-01000432842-1],1 out of 45
8,Cc1nc(C(C)NC(=O)c2cc(COc3ccc(F)cc3F)on2)cs1 (stereo not shown) [SR-01000168282-1],1 out of 45
9,CCC(C)OC(=O)C1=C(C)NC2=C(C(=O)CC(c3ccccc3)C2)C1c1cccc2ccccc12 (stereo not shown) [SR-01000423185-1],2 out of 45
10,CC(C)[C@@H](CO)Nc1ccc2ncc(-c3cccc(Cl)c3)n2n1 [SR-01000383396-1],2 out of 45
11,CCN(CC)c1ccc2c(c1)OC(N)=C(C#N)C2c1ccccc1 (stereo not shown) [SR-01000320053-1],7 out of 45
12,COc1ccc(C2CC(=O)C3=C(C2)NC(C)=C(C(=O)OC(C)C)C3c2ccccc2OC(C)C)cc1 (stereo not shown) [SR-01000422384-1],2 out of 45
13,CCSCCOC(=O)C1=C(C)NC2=C(C(=O)CC(c3ccccc3)C2)C1c1ccc(OC)cc1OC (stereo not shown) [SR-01000425645-1],1 out of 45
14,Cc1cc(OCC(=O)Nc2ccc3oc(-c4ccccc4Br)nc3c2)cc(C)c1Cl [SR-01000421466-1],1 out of 45
15,COc1ccc(COC(=O)C2=C(C)NC3=C(C(=O)CC(C)(C)C3)C2c2ccccc2)cc1 (stereo not shown) [SR-01000427708-1],2 out of 45
16,Cc1cccc(N2CCN(C(=O)CCc3nc(C4=CCN(C)CC4)no3)CC2C)c1 (stereo not shown) [SR-01000140019-1],4 out of 45
17,CCOC(=O)c1sc2ncn(CC(=O)NCCC3=CCCCC3)c(=O)c2c1C [SR-01000119175-1],1 out of 45
18,COc1ccc(SCC(=O)NNC(=S)Nc2ccccc2)cc1 [SR-01000526835-1],2 out of 45
19,CCOc1ccc(Br)cc1C1C2=C(CCCC2=O)N(CC(=O)O)C2=C1C(=O)CCC2 [SR-01000476712-1],1 out of 45
